Source: publication doi:10.1101/639948
Results are given in words; binding and its absence hold for the method and conditions named. In cells and extracts the contact can be indirect.

By UniProt entry, the sequences of proteins in these tests, tags left out.
UniProt Q8IXI1: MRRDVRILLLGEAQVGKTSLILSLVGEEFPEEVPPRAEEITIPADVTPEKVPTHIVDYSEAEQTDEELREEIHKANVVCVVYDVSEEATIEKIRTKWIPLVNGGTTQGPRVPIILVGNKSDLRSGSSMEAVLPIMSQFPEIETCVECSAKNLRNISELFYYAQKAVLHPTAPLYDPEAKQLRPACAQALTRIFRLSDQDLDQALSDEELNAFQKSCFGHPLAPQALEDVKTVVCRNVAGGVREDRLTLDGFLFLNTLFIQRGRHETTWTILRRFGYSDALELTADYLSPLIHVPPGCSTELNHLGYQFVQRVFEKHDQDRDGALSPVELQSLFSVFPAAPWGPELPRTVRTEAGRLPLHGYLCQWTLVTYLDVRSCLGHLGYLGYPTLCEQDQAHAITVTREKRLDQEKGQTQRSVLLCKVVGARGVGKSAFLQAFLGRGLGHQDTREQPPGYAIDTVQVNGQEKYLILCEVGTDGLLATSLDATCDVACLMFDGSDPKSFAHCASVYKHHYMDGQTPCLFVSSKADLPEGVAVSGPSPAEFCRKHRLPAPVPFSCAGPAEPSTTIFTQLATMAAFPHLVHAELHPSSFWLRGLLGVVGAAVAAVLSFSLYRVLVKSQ
UniProt Q8IXI2: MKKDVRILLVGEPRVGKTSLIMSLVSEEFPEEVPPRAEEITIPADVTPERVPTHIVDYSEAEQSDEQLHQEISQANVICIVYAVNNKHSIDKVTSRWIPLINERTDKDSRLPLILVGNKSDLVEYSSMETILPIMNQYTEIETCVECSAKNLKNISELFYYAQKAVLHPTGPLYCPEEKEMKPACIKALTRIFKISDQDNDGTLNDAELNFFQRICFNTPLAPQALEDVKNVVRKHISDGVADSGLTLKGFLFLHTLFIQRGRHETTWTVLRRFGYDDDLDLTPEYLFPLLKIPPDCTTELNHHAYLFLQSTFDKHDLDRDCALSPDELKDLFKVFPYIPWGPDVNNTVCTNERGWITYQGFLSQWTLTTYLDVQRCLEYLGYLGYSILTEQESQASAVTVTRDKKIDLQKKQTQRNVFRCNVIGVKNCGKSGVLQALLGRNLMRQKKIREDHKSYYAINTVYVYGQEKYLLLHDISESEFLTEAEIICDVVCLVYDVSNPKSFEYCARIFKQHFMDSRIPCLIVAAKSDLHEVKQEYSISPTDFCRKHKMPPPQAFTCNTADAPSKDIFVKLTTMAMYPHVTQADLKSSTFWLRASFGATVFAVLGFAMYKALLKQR
UniProt Q15388: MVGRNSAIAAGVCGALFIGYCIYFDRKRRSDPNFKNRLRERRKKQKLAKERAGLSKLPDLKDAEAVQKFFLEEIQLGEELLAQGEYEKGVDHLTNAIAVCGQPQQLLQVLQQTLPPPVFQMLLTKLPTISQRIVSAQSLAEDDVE

Legend:
GFPMiro2 = GFPMiro2 (UniProt Q8IXI1); experiment: co-IP
GFPMiro1 = GFPMiro1 (UniProt Q8IXI2); experiment: co-IP

**Q.** For Tom20 (from UniProt Q15388 1-145), which binding (GFPMiro2) is on record?
**A.** no binding

**Q.** What about the binding (GFPMiro1) of the same substance?
**A.** no binding
